Patent KR20180095349A
Results are given in words; binding and its absence hold for the method and conditions named. Some results given as binding are weak or reduced against the parent protein; the word gives no strength.

The chains behind the UniProt entries cited, without tags or fusion partners. Where a name states a change or a piece, a line headed by the entry shows the natural chain unless it says otherwise. A line that says so, or that is headed by a name, gives the form on record, which may keep a tag or linker.
VEGF 항원 단백질 (VEGF-His) (P15692, form named): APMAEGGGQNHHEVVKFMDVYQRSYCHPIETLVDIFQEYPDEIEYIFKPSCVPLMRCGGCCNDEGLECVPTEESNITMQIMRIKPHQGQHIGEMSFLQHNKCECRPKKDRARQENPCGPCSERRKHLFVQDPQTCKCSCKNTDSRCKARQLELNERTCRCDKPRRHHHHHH

B1: 항-VEGF 단일 클론 파지 항체 3H1 (scFv-파지) (scFv, V domains shown)
VH: QVQLVESGGGLVKPGGSLRLSCAASGFIFSRYGMNWVRQAPGKGLEWVSSISGSSNYRYYADSVKGRFTISRDNAKNSLYLQMNSLRAEDTAVYYCARDASWGLIQGLDSWGQGTLVTVSS
VL: DIQMTQSPSSLSASVGDRVTITCRASQSISSYLNWYQQEPGKAPKLLIYDASSLQSGVPSRFSGGGSGTDFTLTISSLQPEDFAAYYCQQSYSTPYTFGQGTKVDIK
B2: 항-VEGF 단일 클론 파지 항체 4C4 (scFv-파지) (scFv, V domains shown)
VH: QVQLVQSGAEVKKPGSSVKVSCKASGGTFSSSAFSWVRQAPGHGLEWMGRIIPMFDMTDYAQRFQGRLTIIADESSSTAYMELSSLRSEDTAVYYCARYKSGSYGMDVWGQGTTVTVSS
VL: NFMLTQPASVSGSPGQSITISCTGSSSDVGGYNYVSWYQQHPGKAPQLIIYDVTKRPSGVSNRFSGSKSGNSASLTISGLQAEDEADYYCSSYSSSTFYVFGTGTKVTVL
B3: 항-VEGF 단일 클론 파지 항체 7D2 (scFv-파지) (scFv, V domains shown)
VH: QMQLVQSGGGLVQPGGSLRLSCAASGFTFSSFEMNWVRQAPGKGLEWLSYISNSGSTIYYADSVKGRFTISRDNAKNSLYLQMNSLRAEDTAVYYCARDSRYYGIHGMDVWGQGTTITVSS
VL: DIQMTQSPSSLSASVGDRVTITCRASQTISTYLNWYQQKPGKAPKLLIYAASSLQSGVPSRFSGSGSGTDFTLTISSLQPEDFATYYCQQSSSTPRTFGQGTRLEIK

Each binder was assayed against VEGF 항원 단백질 (VEGF-His) (UniProt P15692) (assay: phage ELISA screening followed by fingerprinting and sequencing).

Binder | binding
B1 | binds
B2 | binds
B3 | binds
